Data on 4 molecules can be found in article PMC9035706.

Assay [1] concerns the target T1, SYFP2_(210-238)-PAICS (human) (UniProt P22234).
T1 sequence: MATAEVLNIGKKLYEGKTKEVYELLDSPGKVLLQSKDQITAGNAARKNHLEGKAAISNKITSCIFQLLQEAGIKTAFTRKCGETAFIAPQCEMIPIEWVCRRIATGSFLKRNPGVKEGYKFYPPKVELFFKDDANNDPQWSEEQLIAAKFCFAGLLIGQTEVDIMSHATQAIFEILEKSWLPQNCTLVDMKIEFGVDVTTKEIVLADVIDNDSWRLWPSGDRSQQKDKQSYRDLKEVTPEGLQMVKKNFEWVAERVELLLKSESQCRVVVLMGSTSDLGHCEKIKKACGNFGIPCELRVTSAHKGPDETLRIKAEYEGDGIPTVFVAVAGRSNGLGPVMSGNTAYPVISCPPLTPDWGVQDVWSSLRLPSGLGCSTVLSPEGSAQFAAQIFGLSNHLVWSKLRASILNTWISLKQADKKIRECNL
As to the kind of experiment: split reporter; BiFC with SYFP2_(1-215) and SYFP2_(210-238) fragments in live WT HeLa cells, imaged 24 h after cotransfection at 37 °C, 5% CO2; signal judged against self-cleaving P2A control constructs; purine-depleted and purine-rich media gave essentially identical signals.

Assay [2] addresses T2, PAICS tagged at its C terminus with SYFP2_(210-238) fragment (human) (UniProt P22234).
T2 sequence: T1 sequence
The description is as above.

In assay [3] the target is T3, PAICS-2×Strep (overexpressed in HEK293T) (human) (UniProt P22234).
T3 sequence: T1 sequence
Kind of assay: co-IP; anti-StrepTag affinity purification of StrepTag-labeled PAICS overexpressed in HEK293T cells grown in purine-depleted conditions; Western blot for endogenous PAICS.

The target of assay [4] is T4, 2×Strep-PAICS (overexpressed in HEK293T) (human) (UniProt P22234).
T4 sequence: T1 sequence
The description is as above.

Results are given in words; binding and its absence hold for the method and conditions named. In cells and extracts the contact can be indirect. Some binding calls cover weakened binding; strength is not graded here. For some assays here: Where a sequence is shown, tags or fusion partners need not be part of it.

B1: SYFP2_(1-215)-ADSL (enzyme, UniProt P30566 1-484)
chain: MAAGGDHGSPDSYRSPLASRYASPEMCFVFSDRYKFRTWRQLWLWLAEAEQTLGLPITDEQIQEMKSNLENIDFKMAAEEEKRLRHDVMAHVHTFGHCCPKAAGIIHLGATSCYVGDNTDLIILRNALDLLLPKLARVISRLADFAKERASLPTLGFTHFQPAQLTTVGKRCCLWIQDLCMDLQNLKRVRDDLRFRGVKGTTGTQASFLQLFEGDDHKVEQLDKMVTEKAGFKRAFIITGQTYTRKVDIEVLSVLASLGASVHKICTDIRLLANLKEMEEPFEKQQIGSSAMPYKRNPMRSERCCSLARHLMTLVMDPLQTASVQWFERTLDDSANRRICLAEAFLTADTILNTLQNISEGLVVYPKVIERRIRQELPFMATENIIMAMVKAGGSRQDCHEKIRVLSQQAASVVKQEGGDNDLIERIQVDAYFSPIHSQLDHLLDPSSFTGRASQQVQRFLEEEVYPLLKPYESVMKVKAELCL
For B1, the binding result in assay [1] is given as “binds”.

B2: PAICS C-terminal-labeled with SYFP2_(1-215) (enzyme, UniProt P22234 1-425)
chain: T1 sequence
On to B2, for which the binding entry in assay [2] was “binds”.

B3: SYFP2_(1-215)-PAICS (enzyme, UniProt P22234 1-425)
chain: T1 sequence
For the molecule B3, the binding entry in assay [1] is recorded as “binds”.

B4: endogenous PAICS (HEK293T) (enzyme, UniProt P22234 1-425)
chain: T1 sequence
Take B4: the binding entry in assay [3] and in assay [4] was “binds” each time.
